No constants are given. Whether binding was seen depends on the method and setting. In cells and extracts the contact can be indirect. Binding can be weak; no strength is given.

For this experiment, the target named is PI3K (endogenous in rat retinal ganglion cells) (rat (endogenous in primary RGCs)). The experiment can be described thus: proximity ligation; Duolink PLA with PI3K and ZC3H14 primary antibodies on fixed primary rat RGCs; untreated, PDGFbb or PDGFab treated (signal increased by PDGFab).

B1: ZC3H14 (endogenous in rat retinal ganglion cells) (protein, UniProt Q7TMD5 1-736)
chain: MEIGTEISRKIRSAIKGKLQELGAYVDEELPDYIMVMVANKKSQDQMTEDLSLFLGNNTIRFTVWLHGVLDKLRSVTTEPSSLKSPDTSIFDSNVPSNKSSFSRGDERRHEAAIPPLAVSSSRPEKRDSRVSTSSQEHKSTNVRHSYDDGASTRLMSTVKPLREPAPSEDVIDIKPEPDDLIDEDLNFVQENSLSQKKPTVTLTYGSSRPSIEIYRPPASRNADTGTHLNRPQLQQQQSSTHTAKQLDGQSSQVYEAGRLCEPEVLGSVEDTYSPFFRNNLDKMNIEEENFRKRKLPVVSSVVKVKRFSHDGEEEEEDEDYGTRVGSLSSSVSVPAKPERRPSLPPSKQANKNLILKAISEAQESVTKTTNYPAVPQKQTLPVAPRTRTSQEEVLAEMVQGQNRAPRISPPVKEEEAKGDNAEKIEGTQQRQLLSRLQIDPVTVDTMELSQDYYDMESMVHADTRSFILKKPKLSEEIVVTPNQDSGMKTADALRVLSGHLMQTRDLVQPDKPASPKFIVTLDGVPSPPGYMSDQEEEMCFEGMKPVNQTSASNKGLRGLLHPQQLHLLSRQLEDPDGSFSNAEMTDLSVAQKPEKLLERCKYWPACKNGDECVYHHPISPCKAFPNCKFAEKCLFVHPNCKYDAKCTKADCPFTHMSRRGPVLTPKPAVSSPAPSSNGQFCRYFPACKKMECPFYHPKHCRFNTQCTRPDCTFYHPTITVPPRHALKWIRPQTSE
With B1, the binding entry is given as “binds”.

Values taken from paper PMC7948738.
